Test results from paper doi:10.1101/2021.05.27.445972.
No constants are given. Whether binding was seen depends on the method and setting.

Amino acid sequences for entries named in this document (tags omitted). A change or cut given only in a name is not applied to a line headed by its entry. Chains listed by the source or under a name are the forms on record and can include a tag or linker.
human HELB (Q8NG08, form named): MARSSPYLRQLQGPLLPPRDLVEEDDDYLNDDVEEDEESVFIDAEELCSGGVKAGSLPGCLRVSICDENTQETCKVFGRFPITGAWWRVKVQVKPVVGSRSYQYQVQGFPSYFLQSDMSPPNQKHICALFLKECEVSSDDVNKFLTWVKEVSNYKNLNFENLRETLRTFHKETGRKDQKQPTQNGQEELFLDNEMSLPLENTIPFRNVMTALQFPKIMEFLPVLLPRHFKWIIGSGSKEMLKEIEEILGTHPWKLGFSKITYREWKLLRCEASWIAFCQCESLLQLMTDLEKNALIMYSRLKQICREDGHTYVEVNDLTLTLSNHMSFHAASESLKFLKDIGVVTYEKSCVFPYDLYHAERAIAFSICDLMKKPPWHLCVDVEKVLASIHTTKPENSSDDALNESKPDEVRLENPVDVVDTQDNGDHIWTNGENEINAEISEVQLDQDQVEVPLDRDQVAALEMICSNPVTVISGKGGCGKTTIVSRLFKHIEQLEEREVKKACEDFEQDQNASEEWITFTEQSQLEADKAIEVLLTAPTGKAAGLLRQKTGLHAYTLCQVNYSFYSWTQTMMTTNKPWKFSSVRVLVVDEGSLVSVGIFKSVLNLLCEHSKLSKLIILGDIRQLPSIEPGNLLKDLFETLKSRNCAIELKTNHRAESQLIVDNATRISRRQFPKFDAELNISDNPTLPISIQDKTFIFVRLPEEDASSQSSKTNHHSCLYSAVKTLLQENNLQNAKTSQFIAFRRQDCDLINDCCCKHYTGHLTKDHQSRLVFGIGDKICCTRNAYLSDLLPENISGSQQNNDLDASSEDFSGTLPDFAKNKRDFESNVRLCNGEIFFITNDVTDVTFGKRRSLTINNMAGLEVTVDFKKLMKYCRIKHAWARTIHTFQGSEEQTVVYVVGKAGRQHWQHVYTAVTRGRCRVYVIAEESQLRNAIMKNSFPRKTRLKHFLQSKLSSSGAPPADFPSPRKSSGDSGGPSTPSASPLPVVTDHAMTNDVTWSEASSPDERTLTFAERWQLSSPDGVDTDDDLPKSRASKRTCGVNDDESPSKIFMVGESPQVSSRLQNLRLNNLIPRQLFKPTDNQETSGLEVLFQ

Target: human HELB (human) (UniProt Q8NG08)
Assay: SEC-MALS

Substance: human HELB (from UniProt Q8NG08 1-1087) (enzyme)
- binding: no binding
